Experimental data: patent US11225470B2, “Tetrazolinone compounds and its use as pest control agents” (SUMITOMO CHEMICAL COMPANY, LIMITED, priority 2016, dated 2022)
Some entries share one result that the patent states for a list of compounds.

What was measured:
Type in all cases: in vivo
[1] = system: wheat brown rust fungi (Puccinia recondita); assay: wheat brown rust test; conditions: inoculation after 5 days, wheat cv SHIROGANE
[2] = system: wheat leaf blotch fungi (Septoria tritici); assay: wheat leaf blotch test, spraying before inoculation; conditions: inoculation after 4 days
[3] = system: wheat leaf blotch fungi (Septoria tritici); assay: wheat leaf blotch test, spraying after inoculation; conditions: 200 ppm foliar spray 3 days after inoculation; wheat cv APOGEE
[4] = system: barley scald fungi (Rhynchosporium secalis); assay: barley scald test; conditions: inoculation after 2 days, barley cv NISHINOHOSHI
[5] = system: barley net blotch fungi (Pyrenophora teres); assay: barley net blotch test; conditions: 200 ppm foliar spray, inoculation after 2 days; barley cv MIKAMO GOLDEN
[6] = system: cucumber downy mildew fungi (Pseudoperonospora cubensis); assay: cucumber downy mildew test; conditions: inoculation after 1 day, cucumber cv SAGAMIHANJIRO
[7] = system: kidney bean sclerotinia rot fungi (Sclerotinia sclerotiorum); assay: kidney bean sclerotinia rot test; conditions: kidney bean cv NAGAUZURA SAITO, observed after four days
Description: (§1) Each of plastic pots was filled with soil and thereto Kidney bean (cv; NAGAUZURA SAITO) seeds were sown and the kidney beans were grown in a greenhouse for 8 days. Thereafter, any of the present compounds 1-1, 1-2, 1-3, 1-5, 1-10, 3-16, 3-22, 4-2, 4-3, 4-4, 4-8, or 6-2, each of which was made to a formulation according to the similar method to that of Formulation Example 6, was mixed with water so as to be a prescribed concentration (500 ppm). The adjusted solutions were sprayed to foliar parts so as to adhere adequately on the leaves of the above-mentioned kidney bean. After spraying the mixtures, the kidney beans were air-dried and a PDA medium containing hyphae of kidney bean sclerotinia rot fungi (Sclerotinia sclerotiorum) was placed on the leaves of the kidney bean. After the inoculation, all kidney beans were placed under a high humidity during only night and after four days, a lesion area was observed.
as §1, with “Thereafter, any of the present compounds 1-1, 1-2, 1-3, 1-5, 1-10, 3-16, 3-22, 4-2, 4-3, 4-4, 4-8, or 6-2, each of which was made to a formulation according to the similar method to that of Formulation Example 6, was mixed with water so as to be a prescribed concentration (500 ppm).” left out

[8] = 200 ppm foliar spray, wheat cv APOGEE
[9] = 500 ppm foliar spray, wheat cv Apogee

| Structure (SMILES) | lesion area compared to the lesion area in an untreated wheat [2, 8] [%] | lesion area compared to the lesion area in an untreated wheat [2, 9] [%] | lesion area compared to the lesion area in an untreated barley ([4]; 200 ppm foliar spray) [%] | lesion area compared to the lesion area in an untreated barley ([4]; 500 ppm foliar spray) [%] | lesion area compared to the lesion area in an untreated barley [5] [%] | also measured |
| --- | --- | --- | --- | --- | --- | --- |
| CCC(=NN=C(C)c1cncnc1)OCc1c(C)cccc1-n1nnn(C)c1=O [1-8] | ≤ 30 | ≤ 30 | ≤ 30 | ≤ 30 | ≤ 30 | lesion area compared to the lesion area in an untreated wheat ([1]; 200 ppm foliar spray): ≤ 30%; lesion area compared to the lesion area in an untreated wheat [3]: ≤ 30% |
| CCSC(=NCCc1ccccc1)SCc1c(C)cccc1-n1nnn(C)c1=O [3-1] | ≤ 30 | ≤ 30 |  | ≤ 30 | ≤ 30 | lesion area compared to the lesion area in an untreated wheat ([1]; 200 ppm foliar spray): ≤ 30% |
| CC(=Nc1ccccc1)SCc1c(C)cccc1-n1nnn(C)c1=O [3-3] |  |  |  |  | ≤ 30 | lesion area compared to the lesion area in an untreated cucumber ([6]; 200 ppm foliar spray): ≤ 30% |
| CSC(=Nc1ccccc1)SCc1c(C)cccc1-n1nnn(C)c1=O [3-4] |  |  |  |  | ≤ 30 |  |
| CCc1ccccc1N=C(SC)SCc1c(C)cccc1-n1nnn(C)c1=O [3-6] | ≤ 30 |  | ≤ 30 | ≤ 30 |  |  |
| CCc1cccc(N=C(SC)SCc2c(C)cccc2-n2nnn(C)c2=O)c1 [3-7] | ≤ 30 |  | ≤ 30 |  | ≤ 30 |  |
| CCCCN=C(SC)SCc1c(C)cccc1-n1nnn(C)c1=O [3-16] |  | ≤ 30 |  | ≤ 30 |  | lesion area compared to the lesion area in an untreated kidney bean ([7]; 200 ppm foliar spray): ≤ 30%; lesion area compared to the lesion area in an untreated kidney bean ([7]; 500 ppm foliar spray): ≤ 30% |
| CSC(=NCC1CCCC1)SCc1c(C)cccc1-n1nnn(C)c1=O [3-22] |  |  |  | ≤ 30 |  | lesion area compared to the lesion area in an untreated kidney bean ([7]; 500 ppm foliar spray): ≤ 30% |
| CSC(=NCCc1cccc(F)c1)SCc1c(C)cccc1-n1nnn(C)c1=O [3-26] | ≤ 30 | ≤ 30 | ≤ 30 | ≤ 30 | ≤ 30 | lesion area compared to the lesion area in an untreated wheat ([1]; 200 ppm foliar spray): ≤ 30%; lesion area compared to the lesion area in an untreated wheat [3]: ≤ 30% |
| CSC(=NCCCc1ccccc1)SCc1c(C)cccc1-n1nnn(C)c1=O [3-28] | ≤ 30 |  | ≤ 30 | ≤ 30 | ≤ 30 | lesion area compared to the lesion area in an untreated cucumber ([6]; 50 ppm foliar spray): ≤ 30%; lesion area compared to the lesion area in an untreated cucumber ([6]; 200 ppm foliar spray): ≤ 30% |
| CSC(=NCCCCc1ccccc1)SCc1c(C)cccc1-n1nnn(C)c1=O [3-29] | ≤ 30 |  | ≤ 30 | ≤ 30 | ≤ 30 | lesion area compared to the lesion area in an untreated wheat ([1]; 200 ppm foliar spray): ≤ 30% |
| CSC(=NCC(C)c1ccccc1)SCc1c(C)cccc1-n1nnn(C)c1=O (centres unmarked) [3-30] | ≤ 30 |  |  |  |  |  |
| CSC(=NCCc1ccccc1Cl)SCc1c(C)cccc1-n1nnn(C)c1=O [3-31] | ≤ 30 | ≤ 30 | ≤ 30 | ≤ 30 | ≤ 30 |  |
| CSC(=NCCc1cccc(Cl)c1)SCc1c(C)cccc1-n1nnn(C)c1=O [3-32] | ≤ 30 |  | ≤ 30 | ≤ 30 | ≤ 30 | lesion area compared to the lesion area in an untreated cucumber ([6]; 50 ppm foliar spray): ≤ 30%; lesion area compared to the lesion area in an untreated cucumber ([6]; 200 ppm foliar spray): ≤ 30% |
| CSC(=Nc1ccc2ncsc2c1)SCc1c(C)cccc1-n1nnn(C)c1=O [3-34] | ≤ 30 | ≤ 30 | ≤ 30 | ≤ 30 | ≤ 30 | lesion area compared to the lesion area in an untreated cucumber ([6]; 50 ppm foliar spray): ≤ 30%; lesion area compared to the lesion area in an untreated cucumber ([6]; 200 ppm foliar spray): ≤ 30% |
| CSC(=Nc1noc2ncccc12)SCc1c(C)cccc1-n1nnn(C)c1=O [3-36] |  |  |  | ≤ 30 |  |  |

| Structure (SMILES) | lesion area compared to the lesion area in an untreated wheat [2, 8] [%] | lesion area compared to the lesion area in an untreated wheat [2, 9] [%] | lesion area compared to the lesion area in an untreated barley ([4]; 200 ppm foliar spray) [%] | lesion area compared to the lesion area in an untreated barley ([4]; 500 ppm foliar spray) [%] | lesion area compared to the lesion area in an untreated barley [5] [%] | also measured |
| --- | --- | --- | --- | --- | --- | --- |
| CSC(=Nc1ccc(C(F)(F)F)cc1)SCc1c(C)cccc1-n1nnn(C)c1=O [4-2] |  | ≤ 30 |  |  |  | lesion area compared to the lesion area in an untreated kidney bean ([7]; 500 ppm foliar spray): ≤ 30%; lesion area compared to the lesion area in an untreated cucumber ([6]; 200 ppm foliar spray): ≤ 30% |
| COc1ccccc1N=C(SC)SCc1c(C)cccc1-n1nnn(C)c1=O [4-3] |  | ≤ 30 | ≤ 30 |  |  | lesion area compared to the lesion area in an untreated kidney bean ([7]; 500 ppm foliar spray): ≤ 30%; lesion area compared to the lesion area in an untreated cucumber ([6]; 200 ppm foliar spray): ≤ 30% |
| COc1cccc(N=C(SC)SCc2c(C)cccc2-n2nnn(C)c2=O)c1 [4-4] | ≤ 30 |  | ≤ 30 |  | ≤ 30 | lesion area compared to the lesion area in an untreated kidney bean ([7]; 500 ppm foliar spray): ≤ 30% |
| CSC(=Nc1ccc(F)cc1)SCc1c(C)cccc1-n1nnn(C)c1=O [4-6] |  |  |  | ≤ 30 | ≤ 30 |  |
| CSC(=Nc1ccc(Oc2ccccc2)cc1)SCc1c(C)cccc1-n1nnn(C)c1=O [4-7] |  |  | ≤ 30 |  | ≤ 30 |  |
| COc1ccc(N=C(SC)SCc2c(C)cccc2-n2nnn(C)c2=O)c(OC)c1 [4-10] |  | ≤ 30 |  | ≤ 30 |  |  |
| CSC(=NC(C)C)SCc1c(C)cccc1-n1nnn(C)c1=O [4-12] |  | ≤ 30 |  | ≤ 30 |  | lesion area compared to the lesion area in an untreated wheat ([1]; 200 ppm foliar spray): ≤ 30%; lesion area compared to the lesion area in an untreated wheat ([1]; 500 ppm foliar spray): ≤ 30% |
| Cc1cccc(-n2nnn(C)c2=O)c1C=NOC(C)c1cccc2c1CCC2 (centres unmarked) [6-3] |  |  | ≤ 30 |  |  |  |
| Cc1cccc(-n2nnn(C)c2=O)c1C=NOc1ccccc1 [6-4] |  | ≤ 30 |  |  |  |  |
| CCC(=NN=C(C)C(C)=NO)OCc1c(C)cccc1-n1nnn(C)c1=O [B-1] | ≤ 30 |  | ≤ 30 |  | ≤ 30 |  |
| CCC(=NN=C(C)c1cc2ccccc2n1C)OCc1c(C)cccc1-n1nnn(C)c1=O [D-6] | ≤ 30 | ≤ 30 | ≤ 30 | ≤ 30 | ≤ 30 | lesion area compared to the lesion area in an untreated cucumber ([6]; 200 ppm foliar spray): ≤ 30% |
| CCC(=NN=C(C)c1cccc2c1OC(F)(F)O2)OCc1c(C)cccc1-n1nnn(C)c1=O [D-9] |  | ≤ 30 |  | ≤ 30 | ≤ 30 | lesion area compared to the lesion area in an untreated wheat ([1]; 500 ppm foliar spray): ≤ 30% |
| CCC(=NN=C(C)c1ccc2ccccc2c1)OCc1c(C)cccc1-n1nnn(C)c1=O [cf1, reference compound] |  |  |  |  |  | lesion area compared to the lesion area in an untreated cucumber ([6]; 50 ppm foliar spray): ≥ 50% |
| CCC(=NN=C(C)c1ccc(F)cc1)OCc1c(C)cccc1-n1nnn(C)c1=O [cf3, reference compound] |  |  |  |  |  | lesion area compared to the lesion area in an untreated cucumber ([6]; 50 ppm foliar spray): ≥ 50% |
| CCC(=NN=C(C)c1ccc(Cl)nc1)OCc1c(C)cccc1-n1nnn(C)c1=O [cf4, reference compound] |  |  |  |  |  | lesion area compared to the lesion area in an untreated cucumber ([6]; 50 ppm foliar spray): ≥ 50% |
